Data taken from the supplement of paper PMC10849652.
Some of the results follow.

Chains of the proteins cited; added tags and fusions are not shown. Lines headed by an entry give the natural chain unless they say otherwise; changes in a name come on top.
UniProt Q9H6X5: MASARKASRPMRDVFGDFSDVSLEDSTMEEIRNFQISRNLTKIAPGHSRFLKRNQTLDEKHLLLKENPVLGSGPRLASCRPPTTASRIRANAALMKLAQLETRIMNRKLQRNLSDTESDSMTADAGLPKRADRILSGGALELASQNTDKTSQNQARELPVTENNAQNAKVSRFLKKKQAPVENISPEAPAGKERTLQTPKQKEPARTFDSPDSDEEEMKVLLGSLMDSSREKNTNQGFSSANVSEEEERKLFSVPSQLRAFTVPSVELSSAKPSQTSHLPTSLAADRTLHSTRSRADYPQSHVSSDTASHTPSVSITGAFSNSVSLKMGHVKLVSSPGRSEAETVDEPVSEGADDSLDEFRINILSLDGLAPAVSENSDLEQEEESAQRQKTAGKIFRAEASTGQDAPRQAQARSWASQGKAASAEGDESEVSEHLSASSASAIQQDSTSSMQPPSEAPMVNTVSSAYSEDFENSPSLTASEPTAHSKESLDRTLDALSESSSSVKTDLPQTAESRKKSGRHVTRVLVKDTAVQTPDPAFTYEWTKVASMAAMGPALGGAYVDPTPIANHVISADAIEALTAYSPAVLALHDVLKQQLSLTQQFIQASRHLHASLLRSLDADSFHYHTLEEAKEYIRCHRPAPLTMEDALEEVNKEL
UniProt Q504U0: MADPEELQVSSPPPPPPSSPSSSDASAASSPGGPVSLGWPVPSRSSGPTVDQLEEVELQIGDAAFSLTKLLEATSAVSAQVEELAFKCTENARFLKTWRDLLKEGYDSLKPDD
UniProt Q08AD1: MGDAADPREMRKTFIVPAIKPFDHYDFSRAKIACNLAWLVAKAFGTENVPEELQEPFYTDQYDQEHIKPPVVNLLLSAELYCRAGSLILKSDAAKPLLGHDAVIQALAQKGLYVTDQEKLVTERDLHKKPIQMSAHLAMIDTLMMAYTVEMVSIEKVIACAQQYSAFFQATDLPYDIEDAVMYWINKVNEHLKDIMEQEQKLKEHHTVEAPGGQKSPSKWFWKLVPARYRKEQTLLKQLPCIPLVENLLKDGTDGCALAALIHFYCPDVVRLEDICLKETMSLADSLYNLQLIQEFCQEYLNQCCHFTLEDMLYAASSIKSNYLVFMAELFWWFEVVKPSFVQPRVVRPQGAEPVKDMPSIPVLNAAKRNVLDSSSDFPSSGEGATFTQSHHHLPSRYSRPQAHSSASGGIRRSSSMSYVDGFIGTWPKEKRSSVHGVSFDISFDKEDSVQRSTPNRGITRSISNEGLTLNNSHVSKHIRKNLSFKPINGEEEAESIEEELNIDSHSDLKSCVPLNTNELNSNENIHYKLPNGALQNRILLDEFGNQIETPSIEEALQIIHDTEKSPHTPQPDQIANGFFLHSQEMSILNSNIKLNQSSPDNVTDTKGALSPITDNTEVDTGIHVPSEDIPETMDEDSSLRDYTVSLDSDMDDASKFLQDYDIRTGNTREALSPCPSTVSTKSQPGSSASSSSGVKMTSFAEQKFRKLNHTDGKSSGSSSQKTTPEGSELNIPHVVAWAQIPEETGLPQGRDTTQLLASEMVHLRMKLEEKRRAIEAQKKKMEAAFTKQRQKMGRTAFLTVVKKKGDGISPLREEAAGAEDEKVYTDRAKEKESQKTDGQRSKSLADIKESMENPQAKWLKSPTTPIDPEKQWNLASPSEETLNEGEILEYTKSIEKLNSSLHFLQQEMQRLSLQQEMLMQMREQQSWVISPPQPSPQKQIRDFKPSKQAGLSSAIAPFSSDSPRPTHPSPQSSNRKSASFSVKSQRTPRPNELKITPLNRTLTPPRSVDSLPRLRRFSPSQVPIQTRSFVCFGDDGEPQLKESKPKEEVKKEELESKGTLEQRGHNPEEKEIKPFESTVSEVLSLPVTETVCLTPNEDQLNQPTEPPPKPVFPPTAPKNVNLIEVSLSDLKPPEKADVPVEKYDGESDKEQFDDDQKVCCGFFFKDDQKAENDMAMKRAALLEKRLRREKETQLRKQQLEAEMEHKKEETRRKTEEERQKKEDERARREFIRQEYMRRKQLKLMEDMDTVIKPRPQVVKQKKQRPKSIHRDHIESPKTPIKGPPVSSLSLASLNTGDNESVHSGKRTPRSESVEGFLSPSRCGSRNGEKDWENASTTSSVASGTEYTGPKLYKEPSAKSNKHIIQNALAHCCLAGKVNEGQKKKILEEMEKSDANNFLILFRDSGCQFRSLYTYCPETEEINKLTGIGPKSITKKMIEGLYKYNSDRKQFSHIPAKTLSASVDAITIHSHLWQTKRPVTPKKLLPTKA
UniProt Q9GZU0: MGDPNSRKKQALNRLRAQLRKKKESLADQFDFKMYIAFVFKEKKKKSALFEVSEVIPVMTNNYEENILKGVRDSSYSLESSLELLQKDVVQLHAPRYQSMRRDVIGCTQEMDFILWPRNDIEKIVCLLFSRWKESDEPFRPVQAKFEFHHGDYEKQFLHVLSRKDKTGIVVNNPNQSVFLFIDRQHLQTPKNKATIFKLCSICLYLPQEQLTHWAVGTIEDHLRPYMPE
UniProt Q13137: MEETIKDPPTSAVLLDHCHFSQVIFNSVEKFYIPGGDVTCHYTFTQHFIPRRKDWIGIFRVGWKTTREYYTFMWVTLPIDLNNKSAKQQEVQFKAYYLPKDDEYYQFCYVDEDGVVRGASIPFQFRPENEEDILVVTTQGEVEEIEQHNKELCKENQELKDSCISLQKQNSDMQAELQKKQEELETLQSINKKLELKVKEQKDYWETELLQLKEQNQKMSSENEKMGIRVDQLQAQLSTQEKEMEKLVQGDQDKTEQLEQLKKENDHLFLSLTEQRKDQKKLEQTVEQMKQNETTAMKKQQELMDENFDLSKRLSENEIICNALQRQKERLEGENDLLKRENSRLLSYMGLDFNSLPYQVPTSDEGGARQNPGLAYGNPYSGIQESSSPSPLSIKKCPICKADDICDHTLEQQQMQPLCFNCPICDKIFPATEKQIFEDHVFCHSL
UniProt Q9BVC5: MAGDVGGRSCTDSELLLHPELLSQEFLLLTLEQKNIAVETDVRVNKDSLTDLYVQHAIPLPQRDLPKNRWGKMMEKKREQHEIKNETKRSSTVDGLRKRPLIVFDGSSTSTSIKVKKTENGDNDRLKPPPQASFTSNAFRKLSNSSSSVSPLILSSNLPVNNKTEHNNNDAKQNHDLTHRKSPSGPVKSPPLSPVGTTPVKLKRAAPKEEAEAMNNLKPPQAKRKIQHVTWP
UniProt Q99622: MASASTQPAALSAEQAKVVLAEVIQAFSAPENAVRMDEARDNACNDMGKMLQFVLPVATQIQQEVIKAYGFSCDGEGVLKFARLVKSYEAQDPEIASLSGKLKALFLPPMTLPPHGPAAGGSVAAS
UniProt Q96LW7: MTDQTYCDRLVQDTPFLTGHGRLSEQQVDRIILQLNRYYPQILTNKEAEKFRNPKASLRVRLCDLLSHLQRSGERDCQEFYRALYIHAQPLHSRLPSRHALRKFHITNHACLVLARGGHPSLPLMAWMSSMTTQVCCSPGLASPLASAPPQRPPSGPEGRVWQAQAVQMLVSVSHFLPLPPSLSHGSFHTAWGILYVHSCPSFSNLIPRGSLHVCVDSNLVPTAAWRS
UniProt P00736: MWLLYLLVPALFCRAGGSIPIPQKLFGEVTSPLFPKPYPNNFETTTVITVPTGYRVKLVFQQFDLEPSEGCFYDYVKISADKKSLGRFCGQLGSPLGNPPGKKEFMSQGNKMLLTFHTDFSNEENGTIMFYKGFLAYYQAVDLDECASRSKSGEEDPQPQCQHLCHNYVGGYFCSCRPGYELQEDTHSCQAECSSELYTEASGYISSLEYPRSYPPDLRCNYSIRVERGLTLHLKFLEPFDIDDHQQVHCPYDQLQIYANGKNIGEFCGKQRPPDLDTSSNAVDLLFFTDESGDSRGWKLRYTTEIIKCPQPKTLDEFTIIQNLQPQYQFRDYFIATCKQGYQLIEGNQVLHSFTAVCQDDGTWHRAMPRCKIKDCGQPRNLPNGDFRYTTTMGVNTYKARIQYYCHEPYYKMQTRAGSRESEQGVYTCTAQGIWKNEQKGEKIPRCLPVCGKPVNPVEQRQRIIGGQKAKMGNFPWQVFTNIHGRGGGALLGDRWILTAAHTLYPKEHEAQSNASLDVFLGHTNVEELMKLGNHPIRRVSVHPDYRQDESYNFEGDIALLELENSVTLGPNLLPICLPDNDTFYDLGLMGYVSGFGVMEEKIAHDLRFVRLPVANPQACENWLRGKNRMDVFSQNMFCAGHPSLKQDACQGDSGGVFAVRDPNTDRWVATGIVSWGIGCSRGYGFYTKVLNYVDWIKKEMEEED
UniProt Q96HA4: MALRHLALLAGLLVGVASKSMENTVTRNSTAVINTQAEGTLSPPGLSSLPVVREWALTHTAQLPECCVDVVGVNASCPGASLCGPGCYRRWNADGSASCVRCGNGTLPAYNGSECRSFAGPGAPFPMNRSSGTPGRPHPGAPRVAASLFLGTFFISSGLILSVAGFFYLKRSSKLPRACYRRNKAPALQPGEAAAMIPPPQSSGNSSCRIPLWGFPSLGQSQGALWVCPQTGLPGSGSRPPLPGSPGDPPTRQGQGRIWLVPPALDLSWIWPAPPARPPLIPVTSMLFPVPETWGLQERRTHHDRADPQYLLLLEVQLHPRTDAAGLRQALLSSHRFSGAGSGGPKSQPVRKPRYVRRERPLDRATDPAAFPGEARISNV
UniProt Q9BSF0: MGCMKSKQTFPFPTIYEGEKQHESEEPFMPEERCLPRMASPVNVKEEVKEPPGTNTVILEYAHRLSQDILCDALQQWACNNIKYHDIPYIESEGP
UniProt Q96MH7: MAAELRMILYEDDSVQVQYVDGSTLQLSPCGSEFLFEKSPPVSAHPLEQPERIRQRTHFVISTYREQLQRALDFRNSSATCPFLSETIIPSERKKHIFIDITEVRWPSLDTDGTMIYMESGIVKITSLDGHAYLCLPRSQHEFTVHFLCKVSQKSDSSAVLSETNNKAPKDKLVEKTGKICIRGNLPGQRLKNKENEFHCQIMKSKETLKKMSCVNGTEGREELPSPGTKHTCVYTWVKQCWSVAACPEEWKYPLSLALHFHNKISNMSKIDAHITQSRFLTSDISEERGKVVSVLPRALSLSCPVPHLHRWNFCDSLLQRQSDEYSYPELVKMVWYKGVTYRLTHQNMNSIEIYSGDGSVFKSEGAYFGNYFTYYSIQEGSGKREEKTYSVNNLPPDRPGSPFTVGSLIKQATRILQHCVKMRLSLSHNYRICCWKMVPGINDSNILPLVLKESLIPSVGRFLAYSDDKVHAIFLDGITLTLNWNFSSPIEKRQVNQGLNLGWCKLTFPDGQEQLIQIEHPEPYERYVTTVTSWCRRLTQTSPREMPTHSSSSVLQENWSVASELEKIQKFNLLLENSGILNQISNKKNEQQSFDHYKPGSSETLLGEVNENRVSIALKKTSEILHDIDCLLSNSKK
UniProt Q9P1Y5: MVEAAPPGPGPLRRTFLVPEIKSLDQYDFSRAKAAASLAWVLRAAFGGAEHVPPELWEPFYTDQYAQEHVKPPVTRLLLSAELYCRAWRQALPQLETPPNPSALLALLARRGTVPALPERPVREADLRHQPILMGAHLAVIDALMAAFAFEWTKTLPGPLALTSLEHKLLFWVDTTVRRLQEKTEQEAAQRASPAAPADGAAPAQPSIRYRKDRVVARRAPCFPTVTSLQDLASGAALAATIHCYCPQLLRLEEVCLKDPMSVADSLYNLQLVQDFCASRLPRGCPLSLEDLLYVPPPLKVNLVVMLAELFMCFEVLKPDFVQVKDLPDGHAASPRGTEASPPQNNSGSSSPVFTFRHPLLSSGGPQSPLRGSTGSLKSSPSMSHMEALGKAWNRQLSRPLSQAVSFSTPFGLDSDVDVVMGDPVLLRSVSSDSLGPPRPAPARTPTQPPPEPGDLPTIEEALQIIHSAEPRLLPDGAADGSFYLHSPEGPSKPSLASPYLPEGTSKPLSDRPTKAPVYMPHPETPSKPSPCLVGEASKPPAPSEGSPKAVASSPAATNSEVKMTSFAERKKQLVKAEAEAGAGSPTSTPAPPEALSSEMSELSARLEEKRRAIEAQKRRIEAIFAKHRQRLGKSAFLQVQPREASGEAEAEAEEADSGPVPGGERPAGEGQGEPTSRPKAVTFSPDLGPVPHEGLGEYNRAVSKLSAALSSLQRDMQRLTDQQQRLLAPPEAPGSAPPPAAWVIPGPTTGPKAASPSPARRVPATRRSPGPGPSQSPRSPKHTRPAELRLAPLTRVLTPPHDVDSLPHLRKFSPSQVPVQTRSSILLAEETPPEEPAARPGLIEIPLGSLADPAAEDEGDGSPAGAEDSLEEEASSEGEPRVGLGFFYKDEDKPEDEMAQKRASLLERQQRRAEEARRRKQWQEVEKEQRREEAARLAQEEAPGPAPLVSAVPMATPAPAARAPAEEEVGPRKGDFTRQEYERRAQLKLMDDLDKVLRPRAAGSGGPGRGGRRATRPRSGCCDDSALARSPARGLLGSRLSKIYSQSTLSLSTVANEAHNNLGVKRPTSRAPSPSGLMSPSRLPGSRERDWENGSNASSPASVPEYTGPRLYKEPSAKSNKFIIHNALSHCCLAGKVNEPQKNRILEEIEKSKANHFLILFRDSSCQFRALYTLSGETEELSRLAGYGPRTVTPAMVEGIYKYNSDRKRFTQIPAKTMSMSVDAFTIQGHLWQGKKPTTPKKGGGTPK

Legend:
Test in all cases: log2 fold change, soluble protein after heating vs DMSO (PISA); higher = thermal stabilisation; K562 lysate, 10 uM; active = over 0.2 and 3.5 SD of the protein, either way, in both replicates (recomputed)
ralimetinib = compound: CC(C)(C)Cn1c(N)nc2ccc(-c3[nH]c(C(C)(C)C)nc3-c3ccc(F)cc3)nc21 [ralimetinib]
In short: (§1)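 Following dounce homogenisation of K562 pellets in PBS pH 7.4 with 1 mM MgCl2, crude extract at 1 mg/mL protein was incubated for 30 min with 10 μM compound. Aliquots were then heated for 3 min over 48°C-58°C and pooled, NP-40 was added to 0.5% at 4°C, and soluble protein was recovered as the supernatant at 21,000xg for 90 min. Channel-sum-equalised TMTpro 16plex LC-MS/MS quantified this protein. Each value, from duplicates, is a log-two fold change in thermal stability relative to solvent controls.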

[1] = compound: CC(C)(O)CC(=O)NCCn1ccc2ncnc(Nc3ccc(Oc4cccc(C(F)(F)F)c4)c(Cl)c3)c21
In short: as §1

[2] = compound: CC1=C(C(CC(=O)N1)C2=CC=C(C=C2)C(F)(F)F)C(=O)NC3=C(C=C4C(=C3)C=NN4)F
In short: as §1

[3] = compound: CC1=C(C=C(C=C1)NC(=O)C2=CC(=CC=C2)N(C)C)NC(=O)C3=CC=C(C=C3)O
In short: as §1

[4] = compound: CCn1c(C(=O)N(C2CC2)C2CC2)cc2c3c(ncn3C)c(Nc3cc(C)n(C)n3)nc21
In short: as §1

[5] = compound: CC1=C(C=C(C=C1)NC(=O)C2=CC(=CC=C2)C(C)(C)C#N)NC3=CC4=C(C=C3)N=CN(C4=O)C
In short: as §1

[6] = compound: CCn1cc(-c2ccnc3[nH]c(-c4cccc(CN(C)C)c4)cc23)c(-c2ccc(NC(=O)N(C)C)cc2)n1
In short: as §1

[7] = compound: CN1CCC(CNc2ccc3ncc(-c4cccc(OC(F)(F)F)c4)n3n2)CC1
In short: as §1

sotrastaurin = compound: CN1CCN(c2nc(C3=C(c4c[nH]c5ccccc45)C(=O)NC3=O)c3ccccc3n2)CC1 [sotrastaurin]
In short: as §1

[8] = compound: CC(C)C1=C2N=C(C=C(N2N=C1)NCC3=CC=CC=C3)NCCCCCCN
In short: as §1

[9] = compound: CC1=C(C2=C(C=C1)C(=O)C3=CC=CC=C3N2CCCN)C
In short: as §1

saracatinib = compound: CN1CCN(CCOc2cc(OC3CCOCC3)c3c(Nc4c(Cl)ccc5c4OCO5)ncnc3c2)CC1 [saracatinib]
In short: as §1

[10] = compound: CC(=O)c1cnc2ccc(-c3cc(Cl)c(O)c(Cl)c3)nc2c1N[C@H]1CC[C@H](CN(C)C)CC1
In short: as §1

[11] = compound: CC1=CC=C(C=C1)SC2=C3C=C(SC3=CN=C2)C(=O)N
In short: as §1

vemurafenib = compound: CCCS(=O)(=O)Nc1ccc(F)c(C(=O)c2c[nH]c3ncc(-c4ccc(Cl)cc4)cc23)c1F [vemurafenib]
In short: as §1

[12] = compound: CCCS(=O)(=O)Nc1ccc(F)c(C(=O)c2c[nH]c3ncc(Cl)cc23)c1F
In short: as §1

volasertib = compound: CC[C@@H]1C(=O)N(C)c2cnc(Nc3ccc(C(=O)N[C@H]4CC[C@H](N5CCN(CC6CC6)CC5)CC4)cc3OC)nc2N1C(C)C [volasertib]
In short: as §1

[13] = compound: CC[C@@H]1C(=O)N(C)c2cnc(Nc3ccc(C(=O)NC4CCN(C)CC4)cc3OC)nc2N1C1CCCC1
In short: as §1

Measured: log2 fold change

C19orf44 (UniProt Q9H6X5)
inactive: ralimetinib -0.108 | [1] -0.24 | [2] -0.006 | [3] 0.199 | [4] 0.049

C14orf119 (UniProt Q9NWQ9)
inactive: [5] -0.009 | [6] 0.171 | [7] -0.125 | sotrastaurin 0.086

C4orf46 (UniProt Q504U0)
inactive: ralimetinib 0.215 | [1] -0.275 | [8] 0.158 | [9] 0.008 | [3] 0.245 | [4] 0.097 | saracatinib 0.192

C1orf226 isoform 2 (UniProt A1L170)
inactive: [10] -0.131 | ralimetinib -0.046 | [1] 0.028 | [3] 0.007 | [11] -0.101 | vemurafenib 0.192 | [12] -0.014 | volasertib -0.034 | [4] 0.064

C5orf24 (UniProt Q7Z6I8)
inactive: [5] 0.08 | sotrastaurin 0.027

C1RL (UniProt Q9NZP8)
inactive: [13] 0.089 | [6] 0.092 | [7] 0.158

CAMSAP2 (UniProt Q08AD1)
inactive: ralimetinib -0.093 | [1] 0.162 | [8] 0.024 | [2] 0.273 | [9] 0.044 | [5] -0.04 | [3] 0.186 | vemurafenib 0.135 | [13] -0.085 | [4] 0.132 | [6] -0.282 | [7] -0.011 | saracatinib -0.033 | sotrastaurin 0.041

CA6 (UniProt P23280)
inactive: [8] -0.078

C11orf74 (UniProt Q86VG3)
inactive: ralimetinib 0.008 | [1] 0.035 | [8] -0.005 | [9] 0.017 | [5] -0.095 | [3] 0.012 | vemurafenib 0.072 | [13] -0.061 | [4] 0.148 | saracatinib 0.043 | sotrastaurin -0.001

C12orf60 (UniProt Q5U649)
inactive: ralimetinib 0.066 | [1] 0.056 | [8] -0.329 | [2] -0.131 | [9] 0.021 | [5] 0.032 | [3] -0.062 | vemurafenib -0.374 | [4] 0.38 | saracatinib -0.038 | sotrastaurin 0.097

C19orf57 (UniProt Q0VDD7)
inactive: [9] 0 | vemurafenib -0.185 | [6] 0.07 | [7] -0.017 | saracatinib 0

CAPN1 (UniProt E9PLX0)
inactive: [10] -0.096 | ralimetinib 0.24 | [1] -0.166 | [2] -0.192 | [5] 0.019 | [3] -0.352 | [11] -0.113 | vemurafenib -0.211 | [12] 0.164 | [13] 0.076 | volasertib 0.099 | [4] -0.128 | [6] 0.49 | [7] 0.145 | sotrastaurin -0.037

CAPNS2 (UniProt Q96L46)
inactive: ralimetinib -0.302 | [1] -0.02 | [3] -0.164 | [4] 0.033

Nine consecutive entries already listed, for reference:
C5orf24 (UniProt Q7Z6I8)
inactive: [5] 0.08 | sotrastaurin 0.027

C1RL (UniProt Q9NZP8)
inactive: [13] 0.089 | [6] 0.092 | [7] 0.158

CAMSAP2 (UniProt Q08AD1)
inactive: ralimetinib -0.093 | [1] 0.162 | [8] 0.024 | [2] 0.273 | [9] 0.044 | [5] -0.04 | [3] 0.186 | vemurafenib 0.135 | [13] -0.085 | [4] 0.132 | [6] -0.282 | [7] -0.011 | saracatinib -0.033 | sotrastaurin 0.041

CA6 (UniProt P23280)
inactive: [8] -0.078

C11orf74 (UniProt Q86VG3)
inactive: ralimetinib 0.008 | [1] 0.035 | [8] -0.005 | [9] 0.017 | [5] -0.095 | [3] 0.012 | vemurafenib 0.072 | [13] -0.061 | [4] 0.148 | saracatinib 0.043 | sotrastaurin -0.001

C12orf60 (UniProt Q5U649)
inactive: ralimetinib 0.066 | [1] 0.056 | [8] -0.329 | [2] -0.131 | [9] 0.021 | [5] 0.032 | [3] -0.062 | vemurafenib -0.374 | [4] 0.38 | saracatinib -0.038 | sotrastaurin 0.097

C19orf57 (UniProt Q0VDD7)
inactive: [9] 0 | vemurafenib -0.185 | [6] 0.07 | [7] -0.017 | saracatinib 0

CAPN1 (UniProt E9PLX0)
inactive: [10] -0.096 | ralimetinib 0.24 | [1] -0.166 | [2] -0.192 | [5] 0.019 | [3] -0.352 | [11] -0.113 | vemurafenib -0.211 | [12] 0.164 | [13] 0.076 | volasertib 0.099 | [4] -0.128 | [6] 0.49 | [7] 0.145 | sotrastaurin -0.037

CAPNS2 (UniProt Q96L46)
inactive: ralimetinib -0.302 | [1] -0.02 | [3] -0.164 | [4] 0.033

Later entries

CALR (UniProt K7EJB9)
inactive: [10] -0.07 | [2] -0.028 | [11] -0.036 | [12] 0.042 | volasertib 0.039

C17orf80 (UniProt Q9BSJ5)
inactive: [10] -0.063 | [8] 0.109 | [5] -0.065 | [11] -0.003 | vemurafenib -0.064 | [12] 0.015 | volasertib 0.001 | [6] -0.134 | [7] 0.056 | sotrastaurin 0.044

C11orf24 (UniProt Q96F05)
inactive: ralimetinib 0.057 | [1] 0.058 | [5] 0.124 | [3] -0.017 | [4] -0.072 | [6] 0.11 | [7] 0.119 | sotrastaurin -0.04

C6orf62 (UniProt Q9GZU0)
inactive: [9] -0.482 | [5] 0 | vemurafenib 0.032 | [6] 0.315 | [7] -0.097 | saracatinib -0.313 | sotrastaurin 0.189

CANX (UniProt D6RHJ3)
inactive: [10] -0.013 | [2] 0.021 | [11] -0.008 | vemurafenib -0.033 | [12] -0.04 | volasertib 0.017

CALCOCO2 isoform 5 (UniProt Q13137)
inactive: [2] -0.122 | [6] -0.58 | [7] -0.018

C2orf49 isoform 2 (UniProt Q9BVC5)
inactive: ralimetinib -0.04 | [1] -0.114 | [3] 0.139 | [4] 0.033

CAD (UniProt H7BZB3)
inactive: [8] -0.073 | vemurafenib -0.063 | [13] 0.144 | [6] -0.02 | [7] -0.027

C12orf57 (UniProt Q99622)
inactive: [8] 0.078 | [2] -0.063 | [9] 0.062 | [5] 0.047 | vemurafenib -1.08 | saracatinib -0.077 | sotrastaurin -0.047

CAP1 (UniProt Q5T0R8)
inactive: [10] 0.031 | [8] 0 | [11] 0.079 | [12] -0.115 | volasertib 0.041 | [6] -0.107 | [7] 0.027

CARD19 (UniProt Q96LW7)
inactive: [5] 0.018 | sotrastaurin 0.081

C1R (UniProt P00736)
inactive: [10] 0.008 | [11] 0.027 | [12] 0.031 | volasertib 0.07

CACNA1C isoform 2 (UniProt Q13936)
inactive: [10] -0.018 | [8] 0.027 | [11] -0.069 | [12] 0.069 | volasertib 0.151 | [6] -0.034 | [7] -0.014

C1orf159 isoform 4 (UniProt Q96HA4)
inactive: [9] -0.01 | [13] 0.014 | [6] 0.063 | [7] 0.028 | saracatinib 0.125

C17orf53 (UniProt Q8N3J3)
inactive: [8] 0.033 | [9] -0.094 | [5] 0.188 | saracatinib 0.199 | sotrastaurin 0.089

C2orf88 (UniProt Q9BSF0)
inactive: ralimetinib -0.086 | [1] 0.204 | [5] 0.136 | [3] -0.04 | [4] 0.02 | [6] 0.309 | [7] -0.034 | sotrastaurin -0.058

CARD6 (UniProt Q9BX69)
inactive: [2] -0.099 | [9] -0.043 | [5] 0.079 | vemurafenib 0.08 | saracatinib -0.113 | sotrastaurin -0.05

CA1 (UniProt E5RIF9)
inactive: [13] 0.153 | [6] -0.111 | [7] 0.005

C5orf34 (UniProt Q96MH7)
inactive: [8] 0.063 | [9] -0.043 | vemurafenib 0 | [13] 0.015 | saracatinib 0.127

CAMSAP3 isoform 2 (UniProt Q9P1Y5)
inactive: vemurafenib 0.009

C9orf16 (UniProt Q9BUW7)
inactive: ralimetinib 0.018 | [1] -0.094 | [8] 0.05 | [9] 0.037 | [5] -0.011 | [3] 0.11 | vemurafenib 0.177 | [13] 0.093 | [4] -0.072 | [6] 0.242 | [7] -0.036 | saracatinib -0.039 | sotrastaurin 0.098
